pIC50: −log10 of the molar value. Structures were worked out from names or drawings and are uncertain.
Legend:
[1] = molecular target: T1, TEAD2 (Homo sapiens (Human), UniProt Q15562); experiment: In vitro palmitoylation (TEAD2 autopalmitoylation, streptavidin blot); conditions: compound at 10 μM; Table 3
Procedure: Recombinant GST-TEAD2 or His6TEAD2 (500 ng) protein was pre-incubated with the compounds at indicated concentrations for 15 min. and then incubated with 1 μM of alkyne palmitoyl-5 CoA (Cayman Chemical) for 30 min or 50 mM MES, pH 6.4, followed by Click reaction with biotin-azide as previously described (Zheng, B. et al., J. Am. Chem. Soc., 2013, 135, 7082-7085). Click reaction was performed with 100 μM biotin-azide, 1 mM tris(2-carboxyethyl) phosphine hydrochloride (TCEP), 100 μM tris[(1-benzyl-1H-1,2,3-triazol-4-yl) methyl] amine (TBTA) and 1 mM CuSO4 for 1 h at RT.
The reactions were terminated by the addition of 12 μL of 6×SDS-sample loading buffer (50 mM Tris-HCl, pH 6.8, 6% SDS, 48% Glycerol, 0.03% Bromophenol Blue, 30 mM EDTA, 9% MeSH). Samples were analysed by SDS-PAGE and Western blot was performed by probing with streptavidin HRP and histidine HRP antibodies independently. Bands intensity obtained from streptavidin blot were quantified using BIORAD, Gel doc system and the percentage of inhibition of Tead2 auto palmitoylation is determined by comparing to the DMSO control treated samples.
These compounds were tested for activity in inhibiting TEAD2 palmitoylation in the assay described above.

Sequences of proteins named here, by UniProt entry; tags and fusion partners are left off.
UniProt Q15562, whole entry: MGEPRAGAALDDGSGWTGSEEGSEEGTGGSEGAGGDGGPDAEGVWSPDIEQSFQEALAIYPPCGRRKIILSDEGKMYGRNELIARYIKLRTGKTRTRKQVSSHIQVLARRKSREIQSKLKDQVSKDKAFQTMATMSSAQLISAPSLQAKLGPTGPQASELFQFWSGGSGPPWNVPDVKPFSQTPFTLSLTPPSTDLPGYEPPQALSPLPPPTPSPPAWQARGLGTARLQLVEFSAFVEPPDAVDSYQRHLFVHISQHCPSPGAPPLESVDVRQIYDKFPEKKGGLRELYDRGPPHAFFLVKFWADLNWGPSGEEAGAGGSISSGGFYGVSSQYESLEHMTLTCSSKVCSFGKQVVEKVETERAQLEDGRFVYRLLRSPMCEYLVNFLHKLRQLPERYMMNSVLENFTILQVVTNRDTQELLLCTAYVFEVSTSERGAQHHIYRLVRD

[2] = molecular target: T1, TEAD2; experiment: CMP assay (CPM fluorescence detection of free CoA); conditions: read-out: TEAD2 palmitoylation IC50; Table 3; unit inferred
Procedure: 7-Diethylamino-3-(4′-Maleimidylphenyl)-4-Methylcoumarin (CPM), which reacts with thiol of CoA liberated in the enzymatic reaction, and gives fluorescent signal (excitation ˜350-380, emission-460-480). The assay detects the product (free CoA) which is produced from palmitoyl-CoA as a method to detect the enzymatic activity. Test compounds that inhibit TEAD activity are therefore able to block the CMP fluorescent signal.
TEAD2/4 protein (10 μL of a 50 ng/μL solution) and a solution the test compound (0.5 μL, variable concentration) were pre-incubated for 30 min at r.t. A mixture prepared from MES pH 6.4 buffer (6.5 μL of a 50 mM solution), EDTA (1 μL of a 20 mM solution), palmitoyl-CoA (1 μL of a 20 μM solution), and 7-diethylamino-3-(4′-maleimidylphenyl)-4-methylcoumarin (1 μL of a 10 μM solution) was added and the resulting mixture was mixed well using a pipette. The solution was then incubated at r.t. for 30-120 min. in the dark, and fluorescence was detected at […] every 30 min. until the fluorescence signal is saturated. An IC50 for the ability of the compound to inhibit fluorescence is calculated from the results.

Compound: COc1ccc(Nc2ccc(Oc3ccc(C4CCCCC4)cc3Cl)cc2)c(C(=O)O)c1
- % of inhibition of TEAD2 palmitoylation at 10 μM [1]: 96%
- pIC50 [2]: 6.10

Reference: patent publication US12187722B2, “Small molecule inhibitors of TEAD transcription factors” (The General Hospital Corporation, priority 2019, dated 2025)
